Reference: the supplement of paper PMC5949888
± gives the standard deviation of the averaged measurements. Most values lie at the floor of the assay. Slopes are relative: functional sequences can read slightly below zero.

system: Saccharomyces cerevisiae PS128 hsf1 delta, HSF1(1-493) fusion; test: growth estimate (transactivation domain function in HSF1 fusion, heat-shock survival) (a.u. (slope of normalised read count over time)); higher = stronger growth at 37°C, i.e. more transactivation activity; settings: library: random library

Substance | growth estimate
RLKLMSQVL | < -0.25
RLKNWIYPNLH | < -0.25
RLKRSLDSMVLVPSKGPYTN | < -0.25
RLLAMSIIKLPNWNTVPDGR | < -0.25
RLLKGDLMGRSREMCKG | < -0.25
RLLLALLLAH | < -0.25
RLLNGSKLLGCHRVGLENPP | < -0.25
RLLRWDDGFTKRIHL | < -0.25
RLLS | < -0.25
RLLSLRPPRAGWMRCRIPTA | < -0.25
RLMFAVRN | < -0.25
RLML | < -0.25
RLNINHHGVHFAL | < -0.25
RLNTCSPSSEDVFSSQMAG | < -0.25
RLPFSPGVAYPVAKPDRARL | < -0.25
RLPHNHCT | < -0.25
RLPL | < -0.25
RLPLRWSPSQGSRISYCGAY | < -0.25
RLQ | < -0.25
RLQDFGSTRFKSH | < -0.25
RLQRGIDLNIQRIVTDAAER | < -0.25
RLQVVTTGLAGQIKTVERSV | < -0.25
RLRAKRAECLLLLRGTY | < -0.25
RLRAWEGNVEKPTFTAGGRP | < -0.25
RLRFCVAVLRNPGVSPSARG | < -0.25

Substance | growth estimate
RLRGSSVDLGSMRSQEIYRP | < -0.25
RLRHFQSINVG | -0.205
RLRNQRDSYHFIGIAWFRPQ | < -0.25
RLRVYYTRRQ | < -0.25
RLS | -0.244 ± 0.011
RLSAQHVSHVKTDGSSLGIN | < -0.25
RLSLRFLRVTSKPDRSL | < -0.25
RLSLSFNTRQLPGRLTIP | < -0.25
RLSLSFPVYCQLSGRVT | < -0.25
RLSLWYSSKRRYPAHRAAAD | < -0.25
RLSRDDNLLVWLRSWRVPLK | < -0.25
RLSSEPGRALGTLTLDSVRD | < -0.25
RLSSTCRNSVK | < -0.25
RLSVRRIMYTIPSASSYDSH | < -0.25
RLTLDFIAQRWWRLAP | < -0.25
RLTRPRLGYDKIFVLVRPLT | < -0.25
RLTRVFSTLDGTSTGMKIRR | < -0.25
RLVCVYSGACWRTVSH | < -0.25
RLVG | < -0.25
RLYKSHEHSSNRQTGAVSAL | < -0.25
RLYRTDPTGGCIAEYLLRKR | < -0.25
RMAGCSGFANGRIGMDLSRR | < -0.25
RMALEALFGNLFFGR | < -0.25
RMDIIPYYALERIPLARGAG | < -0.25
RMDSTRFHRVVKWGPAMGEM | < -0.25

Substance | growth estimate
RMDVNDRHSRPRRIGYSK | < -0.25
RMGASPQRVFIENTAKPVKQ | < -0.25
RMGM | < -0.25
RMGTLRSVRP | < -0.25
RMHKAPLCNGRPSR | < -0.25
RMHTLPP | -0.245
RMILHYGNDPLACVVAHLAM | < -0.25
RMIMKRPKVIFMASFVHLG | -0.243
RMIRCVNYGAPDSRGLAVHF | < -0.25
RMKRSSPCNGWSGLRECVGQ | < -0.25
RMLSDKLRKHPRTLREATTN | < -0.25
RMQAPKVLVKMRLGPGQKVS | < -0.25
RMQW | < -0.25
RMRFCNRYTGFQAGGPPILP | < -0.25
RMSIRNY | < -0.25
RMVGRLAQPREC | < -0.25
RMVLLPSNLSGWGESQFIWS | < -0.25
RMVNQSANLRFKRPSSRDCL | < -0.25
RMVQTKGS | < -0.25
RMVS | < -0.25
RMYRSC | < -0.25
RNAAKSDRLPIHLQWYRRAP | < -0.25
RNAGLRVRSRSRGSAYENPP | < -0.25
RNARIASATAREHRLSSADA | < -0.25
RNASFMSKVIYYCDGCRHSY | -0.245

Substance | growth estimate
RNCPAKLKQGKATHRY | < -0.25
RNDGIYFPPCDGPECRE | < -0.25
RNEF | < -0.25
RNELGVRRTSWSGASDQPEC | < -0.25
RNEPLT | < -0.25
RNFQ | -0.25
RNGAAFCRKRGTTFGGPTVQ | -0.192
RNGC | < -0.25
RNGLPHYPLEPQHVAQGDHG | < -0.25
RNGS | < -0.25
RNHHGLAVRTLQDLDAHRHA | < -0.25
RNHVK | < -0.25
RNIRPS | < -0.25
RNIYWN | < -0.25
RNKRWAGTRAMV | < -0.25
RNLPRGT | < -0.25
RNLR | < -0.25
RNLSRGLSLHGDPKDTLLWS | < -0.25
RNMYRITKLKFRTVGYNGNV | < -0.25
RNNIVLTHYRVHLFTFYNKF | -0.243
RNNTLRDRRHAPDAKSANCA | < -0.25
RNPL | < -0.25
RNPSGARAVGGWVEYRLTLW | < -0.25
RNPSNEIYSNIMPCQ | < -0.25
RNQDPASYILRWGNPVLVED | < -0.25

Substance | growth estimate
RNQVASGLHSDMFSSTGPGV | < -0.25
RNR | < -0.25
RNRCWPGSSRY | < -0.25
RNRIDGGWRSGKLPPLKRST | < -0.25
RNRSEVYSVLGS | < -0.25
RNSIYW | < -0.25
RNTVKIAEVSFRITFNPS | < -0.25
RNTVVGVLLSVQVNPPELLL | < -0.25
RNVRRQRRNVAPGFVR | < -0.25
RNWQAYRTLTQRA | < -0.25
RNYPKTNDHTYIGPVRDSPL | < -0.25
RPAFIKEGSTCVIQPRQGGY | < -0.25
RPASD | < -0.25
RPCLLRRERKYRVRIRSPRG | < -0.25
RPDCVGPTCTASGLKQP | < -0.25
RPDNKG | < -0.25
RPEFLPRTGAPVTSE | < -0.25
RPFR | < -0.25
RPGEE | -0.23
RPGKQNRGLELTYGLVS | < -0.25
RPGNRMGESTNDVTLASSTE | < -0.25
RPGPELEVCATSR | < -0.25
RPGRSRIILGTIDY | < -0.25
RPHLSWASMVVTGCLISLFG | < -0.25
RPITGTLN | < -0.25

Substance | growth estimate
RPKHDLSKGASLSE | < -0.25
RPKIVRILAESRWRMIAFSK | < -0.25
RPKVT | < -0.25
RPLDVSENRTLGDLLGCAHF | < -0.25
RPLLSMVGGTAMIVLPVAQS | < -0.25
RPLRRVKKNFSASADGTERG | < -0.25
RPLTESRE | < -0.25
RPLV | < -0.25
RPLVYGFGVNWRSRLSHACV | < -0.25
RPMGGVEGIRFGARQAWYRG | < -0.25
RPMLEQLVPGVNEISGNCPP | < -0.25
RPMSLAIRRV | -0.147
RPMWVRVAMSLHCFYASQID | < -0.25
RPQTEPKFRRSSIPLAGCEV | < -0.25
RPR | < -0.25
RPRCNGNKRATALRD | < -0.25
RPRKCFTGWSGLHEKGNSRR | < -0.25
RPRLHLVAPQLSCLWVEVGL | < -0.25
RPRPGILGRHSASEWREDTP | < -0.25
RPSPWTLTVGAK | < -0.25
